# Laboratory results published in US20210230273A1 (Alexion, published 2021).
# No constants are given. Whether binding was seen depends on the method and setting. Some results given as binding are weak or reduced against the parent protein; the word gives no strength.
# T1: cell surface CD200 (human, UniProt P41217 31-278)
# T1 construct: whole, on cells; also called CD200 on CD200 expressing Raji cells; CD200+ Raji cells
# T1 sequence (looked up): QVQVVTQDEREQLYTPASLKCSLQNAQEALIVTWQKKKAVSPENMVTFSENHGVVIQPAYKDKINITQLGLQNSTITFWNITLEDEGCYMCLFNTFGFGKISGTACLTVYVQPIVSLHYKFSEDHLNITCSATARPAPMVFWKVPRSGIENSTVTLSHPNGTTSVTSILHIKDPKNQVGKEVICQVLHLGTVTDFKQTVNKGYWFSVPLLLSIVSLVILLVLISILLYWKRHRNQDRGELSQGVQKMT
# Tests used:
# [1] = molecular target: T1, cell surface CD200; test: flow cytometry, labelled antibody on CD200 expressing Raji cells
# [2] = molecular target: T1, cell surface CD200; test: whole-blood receptor occupancy by flow cytometry, B cells (CD19+) and T cells (CD3+)
# [3] = molecular target: T1, cell surface CD200; test: flow cytometry, labelled antibody on CD200 expressing Raji cells; y axis % CD200 molecules bound
# [4] = molecular target: T1, cell surface CD200; test: whole-blood CD200 receptor occupancy by flow cytometry, T cells (CD3+); unlabelled antibody incubated overnight, free CD200 against total CD200 (1B2-AF647)
# Description: (§1) Whole blood (including sodium heparin as anticoagulant) was added at 250 μL/FACs tube and sealed. Tubes were incubated at 25° C. in a temperature-controlled cabinet overnight to allow therapeutic antibody binding.
# (§2) FACS Antibody Staining: Cells were blocked with Fc blocking reagent for 30 min. Red blood cells were lysed with hemolytic buffer; remaining cells were spun 800×g for 5 minutes, and the resulting cell pellet was washed twice with PBS. After final wash, cell pellets were resuspended into 200 μL PBS. Cells were stained with a fixable Live/Dead dye for 20 minutes protected from light, and then neutralized and washed with FACS buffer. After the final wash the cells were resuspended in 100 μL wash with FcR block. Labeled antibody cocktail mixes were prepared CD3-PE/CD19-FITC/Alexa-647 or CD3-PE/CD19-FITC/1B2-647 in blocking buffer as well as appropriate controls (single color and FMO). The appropriate amount of antibody was added and incubated with cells protected from light for 30 minutes at room temperature. […]
# (§3) FACS Analysis: Data was acquired on an automated cell analyzer (BD Fortessa) by gating on lymphocytes, and single live cells followed by B cell (CD19+-FITC) and T cells (CD3-PE) populations. […] Percent receptor occupancy was calculated from the MFI (median fluorescence intensity) according to the following formula: […]
# [5] = molecular target: T1, cell surface CD200; test: whole-blood CD200 receptor occupancy by flow cytometry, B cells (CD19+); unlabelled antibody incubated overnight, free CD200 against total CD200 (1B2-AF647)
# Description: as §1, §2, §3
binding [1],binding [2],binding [3],binding [4],binding [5],Binder
binds,binds,binds,binds,binds,"samalizumab (antibody, human IgG2, kappa, V domains shown, Humanized anti-human CD200 mAb with G2/G4 constant region; also called ALXN6000; TPP-309) VH: QVQLQQSGSELKKPGASVKISCKASGYSFTDYIILWVRQNPGKGLEWIGHIDPYYGSSNYNLKFKGRVTITADQSTTTAYMELSSLRSEDTAVYYCGRSKRDYFDYWGQGTTLTVSS VL: DIQMTQSPSSLSASIGDRVTITCKASQDINSYLSWFQQKPGKAPKLLIYRANRLVDGVPSRFSGSGSGTDYTLTISSLQPEDFAVYYCLQYDEFPYTFGGGTKLEIKR"
binds,,binds,,,"TPP-1142 (antibody, human IgG2, kappa, V domains shown, mAb with human G2G4 Fc (effectorless)) VH: QVQLVQSGAEVKKPGASVKVSCKASGYSFTDYIILWVRQAPGQRLEWMGHIDPYYGSSNYNLKFKGRVTITRDTSASTAYMELSSLRSEDTAVYYCGRSKRDYFDYWGQGTLVTVSS VL: DIQMTQSPSSLSASVGDRVTITCKASQDINSYLSWFQQKPGKAPKSLIYRANRLVDGVPSRFSGSGSGTDFTLTISSLQPEDFATYYCLQYDEFPYTFGQGTKLEIKR"
binds,binds,binds,binds,binds,"TPP-1143 (antibody, human IgG2, kappa, V domains shown, mAb with human G2G4 Fc (effectorless); also called TPP-11143 (as printed once)) VH: QVQLVQSGAEVKKPGASVKVSCKASGYSFTDYIILWVRQAPGQRLEWMGHIDPYYGSSNYNLKFKGRVTITRDTSASTAYMELSSLRSEDTAVYYCGRSKRDYFDYWGQGTLVTVSS VL: DIQMTQSPSSLSASVGDRVTITCKASQDINSYLSWFQQKPGKAPKSLIYRANRLVDGVPSRFSGSGSGTDFTLTISSLQPEDFGTYYCLQYDEFPYTFGQGTKLEIKR"
